For one substance, binding results are on record in publication PMC7884074.

For assay [1], the target named is T1, SNPC-4::3xFlag (C. elegans) (UniProt P91868).
T1 sequence: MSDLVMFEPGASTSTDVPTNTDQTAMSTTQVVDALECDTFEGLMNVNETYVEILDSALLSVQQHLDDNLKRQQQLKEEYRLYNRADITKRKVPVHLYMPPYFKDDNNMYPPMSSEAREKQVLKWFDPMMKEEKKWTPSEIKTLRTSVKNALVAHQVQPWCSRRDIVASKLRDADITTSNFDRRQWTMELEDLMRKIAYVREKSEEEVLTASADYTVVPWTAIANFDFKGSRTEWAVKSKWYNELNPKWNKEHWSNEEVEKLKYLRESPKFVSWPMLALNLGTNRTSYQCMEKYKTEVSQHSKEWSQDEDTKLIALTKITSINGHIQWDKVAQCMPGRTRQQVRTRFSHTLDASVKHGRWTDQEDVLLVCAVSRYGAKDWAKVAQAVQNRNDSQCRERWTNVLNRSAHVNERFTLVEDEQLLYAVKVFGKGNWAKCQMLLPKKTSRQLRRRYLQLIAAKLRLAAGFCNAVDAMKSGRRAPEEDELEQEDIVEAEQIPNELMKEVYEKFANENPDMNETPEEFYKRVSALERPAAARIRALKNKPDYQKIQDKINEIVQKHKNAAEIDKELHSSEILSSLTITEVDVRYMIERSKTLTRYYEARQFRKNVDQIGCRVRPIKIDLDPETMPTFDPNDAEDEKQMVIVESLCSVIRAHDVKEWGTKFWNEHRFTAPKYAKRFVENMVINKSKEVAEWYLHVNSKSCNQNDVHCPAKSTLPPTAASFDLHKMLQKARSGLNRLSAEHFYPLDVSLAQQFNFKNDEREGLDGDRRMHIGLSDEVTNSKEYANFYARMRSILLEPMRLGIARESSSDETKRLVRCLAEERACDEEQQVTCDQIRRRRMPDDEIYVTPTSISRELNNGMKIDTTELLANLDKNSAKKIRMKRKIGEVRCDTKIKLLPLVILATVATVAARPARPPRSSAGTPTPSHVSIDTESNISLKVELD
Description: co-IP; anti-Flag IP of SNPC-4::3xFlag from worm lysate, western blot with anti-Ollas; worms collected during spermatogenesis (L4) and oogenesis (gravid); benzonase-treated lysate, 150 mM NaCl, 0.1% NP-40, 4°C, FLAG peptide elution. On the technique in general: A western blot detects proteins with antibodies after separation by electrophoresis.

For assay [2], the target named is T1, SNPC-4::3xFlag (C. elegans). The assay can be described thus: co-IP; anti-Flag IP of SNPC-4::3xFlag from worm lysate, western blot with anti-Ollas; the sample collected during oogenesis (gravid worms) alone; benzonase-treated lysate, 150 mM NaCl, 0.1% NP-40, 4°C, FLAG peptide elution.

These are yes or no findings as the source states them, for the method shown. Binding seen in cells or lysates may run through a third protein. Binding calls can cover weak binding; strength is not graded here. Where a sequence is shown, tags or fusion partners need not be part of it.

SNPC-1.3::Ollas (C. elegans): the binding result in assay [1] is given as “binds”; in assay [2] it was “binds weakly”.
